# Out of some 400,000 compounds screened, about 5,500 (1.4%) were called active. Inconclusive means that the source gave no clear call. Such entries were picked first, then a sample of the others. Calls come from the whole dose curve; as a rule, active = well fitted cell-killing curve with a large enough effect; inconclusive = small, poorly fitted or top-dose-only effect, or effect the other way; inactive = flat fitted curve, though single readings scatter. Potencies beside an inconclusive call are fits to weak or partial responses and may not hold up.
# Assay: qHTS assay for MDR1-selective chemotherapeutics: Primary screen using the parental adenocarcinoma cell KB-3-1; note: nearly all actives have a fitted effect of over 60% in size
# Settings: KB-3-1 viability, CellTiter-Glo ATP luminescence, 72 h; series mostly up to 46.1 µM
# Outline: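 Parental KB-3-1 viability, qHTS format: 72 h compound exposure, 37 °C; CellTiter-Glo; media-only wells and DMSO plates as controls; concentration-effect fits on corrected data.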
# Potency is the fitted concentration of half-maximal effect.
row,SMILES,Potency
1,C=C[C@@H]1c2cc(C)ccc2N(S(=O)(=O)c2ccc(C)cc2)[C@H](c2ccc(C(C)(F)F)cc2)C1(C#N)C#N,inactive
2,O=c1cnnc(Nc2ccccc2F)[nH]1,"inconclusive: 3.66 µM [rising, full curve]"
3,CCC(=Nc1ccccc1OC)C1=C(O)CC(c2ccccc2)CC1=O (configuration not stated),"inconclusive: 18.4 µM [cytotoxic, single point]"
4,COc1ccc(CNC(=O)c2c(N)n(CCCN3CCOCC3)c3nc4ccccc4nc23)cc1,inactive
5,CCOC(=O)Cc1csc(NC(=O)Cc2ccccc2)n1,inactive
6,O=C(NC1CCCC1)C1C(c2ccc(C(F)(F)F)cc2)=Nc2ccccc2N1C(=O)c1cc2ccccc2[nH]1 (configuration not stated),"inconclusive: 29.1 µM [cytotoxic, single point]"
7,COc1ccc(NC(=O)/C(C#N)=C/c2c(C)nn(-c3ccc(F)cc3)c2Cl)cc1OC,"inconclusive: 0.0046 µM [cytotoxic, full curve, poor fit]"
8,COc1cccc(CN(C)CC(O)COc2cc(Cl)ccc2Cl)c1 (configuration not stated),inactive
9,COc1ccc2nc(NC(=O)c3ccc(F)cc3)sc2c1,inactive
10,O=C(/C=C/c1ccco1)Nc1cc(Cl)ccc1C(=O)O,"inconclusive: 18.4 µM [cytotoxic, partial curve, poor fit]"
11,O=c1c([N+](=O)[O-])c(NC2CCCCC2)c2ccccc2n1-c1ccccc1,inactive
12,O=C1c2cc(S(=O)(=O)N3CCOCC3)ccc2-c2ccc(S(=O)(=O)N3CCOCC3)cc21,"inconclusive: 29.1 µM [rising, single point]"
13,Cc1ccc(NC(=O)C(C)Sc2nnc3n2CCCCC3)cc1S(=O)(=O)N1CCOCC1 (configuration not stated),inactive
14,COc1ccc(CCN(C)C(=O)COc2cccc(-n3cnnn3)c2)cc1OC,"inconclusive: 29.1 µM [rising, single point]"
15,O=C(O)c1ccccc1N(Cc1ccccc1)C(=O)CO/N=C/c1ccccc1,"inconclusive: 29.1 µM [cytotoxic, single point]"
16,O=C(NC1CCSc2ccccc21)c1ccccc1Br (configuration not stated),inactive
17,Cc1cc(NC(=O)CCCn2ccc([N+](=O)[O-])n2)n(Cc2ccc(F)cc2)n1,"inconclusive: 20.6 µM [cytotoxic, single point]"
18,Cc1sc2ncn(CC(=O)N3CCC(C(N)=O)CC3)c(=O)c2c1S(=O)(=O)N1CCOCC1,"inconclusive: 20.6 µM [rising, single point]"
19,O=C(Nc1cccc2c1[nH]c(=O)c1ccccc12)C(F)(F)F,"inconclusive: 32.6 µM [rising, single point]"
20,COc1ccc(N(Cc2ccccc2)C(=O)c2ccccc2[N+](=O)[O-])cc1,"inconclusive: 20.6 µM [cytotoxic, single point]"
21,CCN(CC)CCNC(=O)C1CCCN(c2nnc(C)c3c(C)n(-c4ccc(Cl)cc4)nc23)C1 (configuration not stated),inactive
22,CCC1(c2ccc(F)cc2)NC(=O)N(CC(=O)NC2CCCC(C)C2C)C1=O (configuration not stated),inactive
23,CC(C)c1csc(CN2CCC(CO)(Cc3cccc(F)c3)CC2)n1,"inconclusive: 18.4 µM [cytotoxic, single point]"

# Rewritten tab-delimited: entries from further up
row	SMILES	Potency
6	O=C(NC1CCCC1)C1C(c2ccc(C(F)(F)F)cc2)=Nc2ccccc2N1C(=O)c1cc2ccccc2[nH]1 (configuration not stated)	inconclusive: 29.1 µM [cytotoxic, single point]
8	COc1cccc(CN(C)CC(O)COc2cc(Cl)ccc2Cl)c1 (configuration not stated)	inactive
10	O=C(/C=C/c1ccco1)Nc1cc(Cl)ccc1C(=O)O	inconclusive: 18.4 µM [cytotoxic, partial curve, poor fit]
11	O=c1c([N+](=O)[O-])c(NC2CCCCC2)c2ccccc2n1-c1ccccc1	inactive

# The list continues:

row,SMILES,Potency
1,Cc1ccc(CCNC(=O)C2CCCN(S(C)(=O)=O)C2)cc1 (configuration not stated),inactive
2,CCC(Oc1ccccc1)C(=O)Nc1cc(C(F)(F)F)ccc1N1CCOCC1 (configuration not stated),"inconclusive: 29.1 µM [cytotoxic, single point]"
3,CC(=O)Nc1sc(C)c(C)c1C(=O)OCC(=O)Nc1cccc(C)c1,"inconclusive: 29.1 µM [cytotoxic, single point]"
4,Cc1cccc(C)c1NC(=O)C1CCCN(S(=O)(=O)c2c(C)noc2/C=C/N(C)C)C1 (configuration not stated),"inconclusive: 29.1 µM [rising, single point]"
5,O=C(Nc1ccc(S(=O)(=O)N2CCCC2)cc1)C1CCN(S(=O)(=O)c2ccc(F)cc2)CC1,"inconclusive: 16.4 µM [cytotoxic, single point]"
6,CCc1cc(-c2cnnn2Cc2ccccc2)ccc1-c1cn(CC(C)C)nn1,"inconclusive: 13 µM [cytotoxic, partial curve]"
7,Cc1nc(SCC(=O)NCC2CCCO2)c2cc(-c3ccccc3)sc2n1 (configuration not stated),"inconclusive: 18.4 µM [cytotoxic, single point]"
8,CC(=O)/C(C#N)=C1\NC(=O)C(Cc2ccccc2Cl)S1 (configuration not stated),active: 3.26 µM
9,COc1ccccc1CN1CCN(C(c2ccccc2)c2ccccc2)CC1,"inconclusive: 20.6 µM [cytotoxic, partial curve, poor fit]"
10,Cc1ccc(S(=O)(=O)/C(C#N)=C/c2c(N3CC(C)OC(C)C3)nc3ccccn3c2=O)cc1 (configuration not stated),inactive
11,O=C1OC(c2ccccc2)(c2ccc3cc(O)ccc3c2)c2ccccc21 (configuration not stated),"inconclusive: 11.6 µM [cytotoxic, partial curve]"
12,Cc1ccccc1-n1c(SCC(=O)N/N=C/c2sccc2C)nc2ccccc2c1=O,inactive
13,COc1cc([N+](=O)[O-])cc(/C=C2/SC(=S)N(Cc3ccccc3)C2=O)c1O,"inconclusive: 23.1 µM [cytotoxic, single point]"
14,CCN(CC)c1ccc2cc(-c3nc4ccccc4n3C)c(=O)oc2c1,active: 0.231 µM
15,O=C(Nc1ccc(-c2nc3ccc(NC(=O)c4cccs4)cc3[nH]2)cc1)c1cccs1,active: 6.51 µM
16,CCOC(=O)c1cc(-c2ccc(C)cc2)n(CCC(=O)NCc2ccccc2)c1C,inactive
17,CC1(C)Cc2c(c(N3CCOCC3)nc3sc(C(=O)Nc4cccc(Cl)c4)c(N)c23)CO1,"inconclusive: 14.6 µM [cytotoxic, partial curve, poor fit]"
18,Cc1cc(C)cc(-n2ncc3c2CCCC3NC(=O)C2(C(N)=O)CC2)c1 (configuration not stated),"inconclusive: 20.6 µM [cytotoxic, partial curve, poor fit]"
19,O=C(Nc1nnc(-c2cccs2)o1)c1cccc(F)c1,"inconclusive: 2.31 µM [cytotoxic, partial curve, poor fit]"
20,CCO[C@@H]1OC(C(=O)N2CCN(Cc3ccccc3)CC2)=C[C@H](c2ccc(Br)cc2)[C@H]1CCCO,"inconclusive: 20.6 µM [cytotoxic, single point]"
21,Cc1cc(C)[n+](C)c2ccccc12,"inconclusive: 7.31 µM [cytotoxic, partial curve, poor fit]"
22,CN(C(=O)c1ccc(NC(=O)Cc2cccc(NC(=O)C3CCCN(C(=O)C4CCC4)C3)c2)cc1)C1CCCC1 (configuration not stated),inactive
23,CCOc1cc(/C=N/NC(=O)C(=O)NCc2cccnc2)ccc1O,"inconclusive: 23.1 µM [rising, single point]"

row,SMILES,Potency
1,Cn1nc(C(F)(F)F)c(C(=O)Nc2cccc(C(F)(F)F)c2)c1SCc1ccc(Cl)cc1,active: 16.4 µM
2,Cn1c(SCc2ccc(F)cc2Cl)nc2ccccc2c1=O,"inconclusive: 5.8 µM [cytotoxic, full curve]"
3,C#CCOc1ccc(C2C(C(=O)OC)=C(C)NC3=C2C(=O)c2ccccc23)cc1OCC (configuration not stated),inactive
4,CC(C)CC(=NNC(=O)c1ccncc1)c1cc(Cl)ccc1O,"inconclusive: 20.6 µM [cytotoxic, partial curve, poor fit]"
5,O=S(=O)(O)c1ccc(O)c2cc(Nc3ccccc3)ccc12,"inconclusive: 18.4 µM [rising, partial curve]"
6,COc1ccc(OC)c(N(CC(=O)NC2CCCC2)S(=O)(=O)c2ccc(OC)c(OC)c2)c1,"inconclusive: 29.1 µM [rising, single point]"
7,O=S(=O)(NCCc1csc(-c2ccc(F)cc2)n1)c1ccc(F)cc1F,"inconclusive: 32.6 µM [cytotoxic, partial curve, poor fit]"
8,Cc1ccc(/C=C/C(=O)Nc2nnc(C)s2)o1,"inconclusive: 29.1 µM [rising, partial curve, poor fit]"
9,COc1ccc(C2CC(c3ccc(Cl)cc3)=NN2C(=O)c2cccc([N+](=O)[O-])c2)cc1 (configuration not stated),"inconclusive: 23.1 µM [cytotoxic, single point]"
10,Cc1ccc(OC(=O)C2c3ccccc3Oc3ccccc32)cc1C,inactive
11,Cc1ccnc(NC(=S)NC(=O)/C=C/c2ccco2)c1,active: 10.3 µM
12,COC(=O)/C(=N/Nc1ccccc1)N1CCCc2ccccc21,"inconclusive: 13 µM [cytotoxic, partial curve]"
13,Cc1cccc(C)c1NC(=O)C(CCc1ccccc1)n1c(=O)c(-c2cc3ccccc3[nH]2)nc2ccccc21 (configuration not stated),"inconclusive: 23.1 µM [cytotoxic, single point]"
14,C=CCn1c(=O)c2c(nc(Br)n2Cc2ccccc2Cl)n(C)c1=O,"inconclusive: 25.9 µM [cytotoxic, partial curve, poor fit]"
15,COC(=O)c1cc(NC(=O)Nc2cccc(Cl)c2)ccc1Cl,inactive
16,COc1cc(NC(=O)COc2ccc([N+](=O)[O-])cc2)ccc1NC(=O)c1ccco1,inactive
17,CCC(CC)NC(=O)COC(=O)c1ccc(OCc2ccc(C(C)=O)cc2OC)c(OC)c1,inactive
18,O=C(CSc1ncnc2nc[nH]c12)c1ccccc1,"inconclusive: 29.1 µM [cytotoxic, single point]"
19,CS(=O)(=O)N(Cc1ccc(Cl)cc1)c1ccc(C(=O)NCCSCc2ccco2)cc1,"inconclusive: 35.5 µM [cytotoxic, single point]"
20,Cc1ccc(N(CC(=O)NCCc2ccc(F)cc2)S(=O)(=O)c2ccc(Cl)c([N+](=O)[O-])c2)c(C)c1,"inconclusive: 16.4 µM [cytotoxic, single point]"
21,CCc1cccc(C)c1NC(=O)CSc1nnc(Cc2csc(C)n2)o1,"inconclusive: 20.6 µM [rising, partial curve, poor fit]"
